The supplement of paper PMC7666118
The other results are listed elsewhere or left out.

Protein sequences, listed by entry. Tags and fused reporters are not part of them. Lines headed by an entry give the natural chain unless they say otherwise; changes in a name come on top.
UniProt Q9GZP9: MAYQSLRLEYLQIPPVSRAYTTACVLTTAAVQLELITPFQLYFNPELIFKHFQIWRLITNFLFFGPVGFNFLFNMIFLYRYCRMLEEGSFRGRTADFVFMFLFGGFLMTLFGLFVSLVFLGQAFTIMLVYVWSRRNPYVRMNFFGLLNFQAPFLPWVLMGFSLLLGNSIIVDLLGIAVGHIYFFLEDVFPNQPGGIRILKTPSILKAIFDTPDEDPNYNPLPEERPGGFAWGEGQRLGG
UniProt Q14203, whole entry: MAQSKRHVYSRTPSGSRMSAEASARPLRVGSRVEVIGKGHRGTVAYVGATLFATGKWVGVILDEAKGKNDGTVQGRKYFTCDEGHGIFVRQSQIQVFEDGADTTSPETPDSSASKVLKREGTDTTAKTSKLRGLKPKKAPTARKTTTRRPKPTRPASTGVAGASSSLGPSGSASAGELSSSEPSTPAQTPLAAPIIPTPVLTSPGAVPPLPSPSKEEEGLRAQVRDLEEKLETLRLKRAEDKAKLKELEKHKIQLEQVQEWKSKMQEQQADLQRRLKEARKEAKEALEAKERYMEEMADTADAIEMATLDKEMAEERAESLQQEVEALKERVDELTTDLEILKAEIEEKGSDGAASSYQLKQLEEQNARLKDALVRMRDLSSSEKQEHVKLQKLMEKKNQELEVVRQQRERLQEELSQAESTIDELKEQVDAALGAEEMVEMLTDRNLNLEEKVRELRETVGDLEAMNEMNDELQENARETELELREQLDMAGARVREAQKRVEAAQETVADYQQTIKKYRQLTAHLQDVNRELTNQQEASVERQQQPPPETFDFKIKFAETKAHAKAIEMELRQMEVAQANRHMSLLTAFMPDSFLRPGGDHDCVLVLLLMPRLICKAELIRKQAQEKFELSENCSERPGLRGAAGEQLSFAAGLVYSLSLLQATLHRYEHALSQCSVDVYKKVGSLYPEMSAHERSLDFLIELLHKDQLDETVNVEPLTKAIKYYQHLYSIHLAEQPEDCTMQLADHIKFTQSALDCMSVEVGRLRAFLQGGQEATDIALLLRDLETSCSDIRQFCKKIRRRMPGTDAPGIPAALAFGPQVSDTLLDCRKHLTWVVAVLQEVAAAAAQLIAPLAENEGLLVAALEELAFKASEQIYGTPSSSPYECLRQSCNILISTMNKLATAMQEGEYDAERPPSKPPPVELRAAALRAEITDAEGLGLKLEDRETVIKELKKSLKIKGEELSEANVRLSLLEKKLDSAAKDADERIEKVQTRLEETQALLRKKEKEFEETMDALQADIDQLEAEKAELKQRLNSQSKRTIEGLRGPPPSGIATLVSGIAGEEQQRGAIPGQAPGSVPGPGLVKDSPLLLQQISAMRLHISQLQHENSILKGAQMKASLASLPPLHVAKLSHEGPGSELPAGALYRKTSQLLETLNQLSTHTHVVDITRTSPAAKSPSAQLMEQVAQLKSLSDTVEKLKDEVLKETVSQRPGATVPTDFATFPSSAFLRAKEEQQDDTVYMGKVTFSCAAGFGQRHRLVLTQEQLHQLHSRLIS
UniProt O14548: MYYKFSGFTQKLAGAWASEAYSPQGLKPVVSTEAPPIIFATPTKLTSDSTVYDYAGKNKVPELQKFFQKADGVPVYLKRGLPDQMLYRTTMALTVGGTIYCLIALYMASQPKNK
UniProt O95232: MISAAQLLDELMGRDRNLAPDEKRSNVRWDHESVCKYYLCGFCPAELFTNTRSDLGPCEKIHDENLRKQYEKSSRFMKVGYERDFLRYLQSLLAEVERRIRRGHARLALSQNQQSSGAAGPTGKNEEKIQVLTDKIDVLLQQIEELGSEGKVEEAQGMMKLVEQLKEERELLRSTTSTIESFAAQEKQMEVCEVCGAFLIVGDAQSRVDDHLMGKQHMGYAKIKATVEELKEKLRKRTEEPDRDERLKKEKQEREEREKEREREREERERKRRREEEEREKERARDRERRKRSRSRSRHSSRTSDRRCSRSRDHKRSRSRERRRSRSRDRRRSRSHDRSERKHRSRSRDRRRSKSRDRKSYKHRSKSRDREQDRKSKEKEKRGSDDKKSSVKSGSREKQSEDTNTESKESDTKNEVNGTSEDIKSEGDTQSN
UniProt O75534: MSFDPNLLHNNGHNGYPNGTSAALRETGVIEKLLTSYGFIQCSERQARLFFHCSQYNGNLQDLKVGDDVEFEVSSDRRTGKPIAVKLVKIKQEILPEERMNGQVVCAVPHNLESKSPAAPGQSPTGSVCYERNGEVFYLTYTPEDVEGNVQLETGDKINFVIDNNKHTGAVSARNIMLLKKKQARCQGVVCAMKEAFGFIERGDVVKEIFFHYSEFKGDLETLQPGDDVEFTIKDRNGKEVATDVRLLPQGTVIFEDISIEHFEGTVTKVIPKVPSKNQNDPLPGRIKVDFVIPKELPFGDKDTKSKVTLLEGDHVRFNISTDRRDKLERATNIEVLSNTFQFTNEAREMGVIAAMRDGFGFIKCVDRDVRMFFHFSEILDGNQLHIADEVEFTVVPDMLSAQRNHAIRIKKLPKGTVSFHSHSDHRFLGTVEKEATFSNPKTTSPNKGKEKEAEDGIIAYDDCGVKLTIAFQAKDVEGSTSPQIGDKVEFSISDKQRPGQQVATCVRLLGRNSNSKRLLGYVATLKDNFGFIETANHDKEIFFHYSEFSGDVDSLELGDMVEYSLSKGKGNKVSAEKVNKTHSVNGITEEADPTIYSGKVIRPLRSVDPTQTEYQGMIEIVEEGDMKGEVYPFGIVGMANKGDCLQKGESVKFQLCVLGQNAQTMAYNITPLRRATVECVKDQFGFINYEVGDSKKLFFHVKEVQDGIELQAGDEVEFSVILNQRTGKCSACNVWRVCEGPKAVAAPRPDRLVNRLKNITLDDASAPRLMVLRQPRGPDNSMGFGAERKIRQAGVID
UniProt Q8WVC6: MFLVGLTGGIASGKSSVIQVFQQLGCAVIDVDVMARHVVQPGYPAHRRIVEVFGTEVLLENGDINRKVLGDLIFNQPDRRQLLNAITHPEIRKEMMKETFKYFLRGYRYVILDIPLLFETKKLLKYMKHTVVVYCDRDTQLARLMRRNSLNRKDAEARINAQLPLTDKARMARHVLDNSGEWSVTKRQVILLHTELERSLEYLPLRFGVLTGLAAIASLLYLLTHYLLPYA
UniProt Q14118: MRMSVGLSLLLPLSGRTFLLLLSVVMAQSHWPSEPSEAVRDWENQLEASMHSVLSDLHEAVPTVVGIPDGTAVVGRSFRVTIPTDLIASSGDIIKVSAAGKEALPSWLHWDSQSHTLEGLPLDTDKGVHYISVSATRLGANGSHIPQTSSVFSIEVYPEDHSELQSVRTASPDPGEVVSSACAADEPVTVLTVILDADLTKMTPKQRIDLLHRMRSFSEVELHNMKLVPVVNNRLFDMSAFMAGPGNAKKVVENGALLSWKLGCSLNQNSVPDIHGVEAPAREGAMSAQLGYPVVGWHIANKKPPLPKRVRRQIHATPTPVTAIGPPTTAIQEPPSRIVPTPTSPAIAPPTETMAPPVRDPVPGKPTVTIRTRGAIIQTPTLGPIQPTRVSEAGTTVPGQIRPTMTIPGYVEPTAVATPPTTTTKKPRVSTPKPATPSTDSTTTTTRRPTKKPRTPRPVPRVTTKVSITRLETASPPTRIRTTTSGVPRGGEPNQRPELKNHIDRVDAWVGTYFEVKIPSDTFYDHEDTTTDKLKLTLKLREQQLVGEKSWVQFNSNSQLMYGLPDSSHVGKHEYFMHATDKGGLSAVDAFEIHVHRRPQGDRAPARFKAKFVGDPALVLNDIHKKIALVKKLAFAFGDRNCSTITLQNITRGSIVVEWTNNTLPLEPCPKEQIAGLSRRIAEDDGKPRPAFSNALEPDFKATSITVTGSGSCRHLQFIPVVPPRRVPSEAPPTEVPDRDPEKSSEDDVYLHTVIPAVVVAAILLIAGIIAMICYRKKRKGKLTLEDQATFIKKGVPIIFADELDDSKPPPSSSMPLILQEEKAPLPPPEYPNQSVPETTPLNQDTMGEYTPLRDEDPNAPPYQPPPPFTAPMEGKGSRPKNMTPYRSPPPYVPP
UniProt Q92828: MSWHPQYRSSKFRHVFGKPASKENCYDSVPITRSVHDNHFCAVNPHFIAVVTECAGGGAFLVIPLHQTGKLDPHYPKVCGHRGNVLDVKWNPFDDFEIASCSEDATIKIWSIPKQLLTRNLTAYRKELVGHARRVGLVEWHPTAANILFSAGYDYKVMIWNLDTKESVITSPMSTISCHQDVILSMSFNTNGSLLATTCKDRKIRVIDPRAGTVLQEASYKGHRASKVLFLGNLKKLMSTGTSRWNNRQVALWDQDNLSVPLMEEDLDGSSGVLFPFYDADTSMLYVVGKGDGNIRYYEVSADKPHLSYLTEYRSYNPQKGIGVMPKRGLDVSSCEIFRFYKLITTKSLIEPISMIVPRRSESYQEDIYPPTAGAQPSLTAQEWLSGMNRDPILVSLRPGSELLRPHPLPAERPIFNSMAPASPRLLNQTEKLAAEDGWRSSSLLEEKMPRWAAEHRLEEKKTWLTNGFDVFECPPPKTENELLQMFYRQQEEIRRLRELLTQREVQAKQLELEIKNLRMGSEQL
UniProt O75976: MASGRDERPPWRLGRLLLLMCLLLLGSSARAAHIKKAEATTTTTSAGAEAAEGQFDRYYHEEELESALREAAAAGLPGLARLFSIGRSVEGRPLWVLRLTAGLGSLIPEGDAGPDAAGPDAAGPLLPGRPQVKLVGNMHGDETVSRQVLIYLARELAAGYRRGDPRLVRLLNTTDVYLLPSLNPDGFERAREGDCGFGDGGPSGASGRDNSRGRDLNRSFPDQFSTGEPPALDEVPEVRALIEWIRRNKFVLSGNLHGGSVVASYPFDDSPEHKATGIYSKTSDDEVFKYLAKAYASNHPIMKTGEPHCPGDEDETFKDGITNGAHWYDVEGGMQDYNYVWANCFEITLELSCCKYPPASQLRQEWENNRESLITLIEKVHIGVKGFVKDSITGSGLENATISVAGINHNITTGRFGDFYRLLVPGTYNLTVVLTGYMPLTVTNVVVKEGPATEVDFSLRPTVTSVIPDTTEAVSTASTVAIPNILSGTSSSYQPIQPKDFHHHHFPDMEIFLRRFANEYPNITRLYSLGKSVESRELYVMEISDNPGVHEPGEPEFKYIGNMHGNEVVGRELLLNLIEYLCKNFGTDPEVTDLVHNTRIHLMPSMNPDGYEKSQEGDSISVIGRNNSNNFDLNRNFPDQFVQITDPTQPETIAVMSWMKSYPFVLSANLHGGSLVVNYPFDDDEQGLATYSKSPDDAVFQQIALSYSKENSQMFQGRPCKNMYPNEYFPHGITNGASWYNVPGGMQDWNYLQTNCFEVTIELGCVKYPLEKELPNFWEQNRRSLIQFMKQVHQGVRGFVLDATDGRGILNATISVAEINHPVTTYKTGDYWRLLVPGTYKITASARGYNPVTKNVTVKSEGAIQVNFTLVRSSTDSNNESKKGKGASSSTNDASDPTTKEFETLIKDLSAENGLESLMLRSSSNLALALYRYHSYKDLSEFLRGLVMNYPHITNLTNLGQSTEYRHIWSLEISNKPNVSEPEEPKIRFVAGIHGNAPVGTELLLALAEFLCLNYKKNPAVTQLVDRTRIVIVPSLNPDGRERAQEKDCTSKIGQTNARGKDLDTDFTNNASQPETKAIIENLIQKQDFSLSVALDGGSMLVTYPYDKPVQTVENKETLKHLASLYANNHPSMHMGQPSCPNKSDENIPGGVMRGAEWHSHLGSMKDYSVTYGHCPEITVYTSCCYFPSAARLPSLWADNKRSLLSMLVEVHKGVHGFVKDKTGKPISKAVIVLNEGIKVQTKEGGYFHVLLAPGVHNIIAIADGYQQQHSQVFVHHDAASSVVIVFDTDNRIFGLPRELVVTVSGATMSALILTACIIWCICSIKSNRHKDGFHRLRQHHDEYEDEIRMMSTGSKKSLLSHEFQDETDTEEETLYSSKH
UniProt Q05048: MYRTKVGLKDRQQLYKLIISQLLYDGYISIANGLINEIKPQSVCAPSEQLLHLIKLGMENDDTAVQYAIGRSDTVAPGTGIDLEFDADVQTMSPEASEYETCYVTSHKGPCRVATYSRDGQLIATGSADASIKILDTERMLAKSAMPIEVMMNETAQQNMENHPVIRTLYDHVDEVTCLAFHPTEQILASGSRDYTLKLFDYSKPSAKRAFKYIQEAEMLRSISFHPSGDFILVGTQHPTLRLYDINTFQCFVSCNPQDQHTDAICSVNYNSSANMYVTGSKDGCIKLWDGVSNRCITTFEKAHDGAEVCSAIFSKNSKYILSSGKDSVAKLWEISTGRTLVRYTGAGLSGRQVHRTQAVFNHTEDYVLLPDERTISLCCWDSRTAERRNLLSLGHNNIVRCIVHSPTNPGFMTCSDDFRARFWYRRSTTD
UniProt Q9BUN8: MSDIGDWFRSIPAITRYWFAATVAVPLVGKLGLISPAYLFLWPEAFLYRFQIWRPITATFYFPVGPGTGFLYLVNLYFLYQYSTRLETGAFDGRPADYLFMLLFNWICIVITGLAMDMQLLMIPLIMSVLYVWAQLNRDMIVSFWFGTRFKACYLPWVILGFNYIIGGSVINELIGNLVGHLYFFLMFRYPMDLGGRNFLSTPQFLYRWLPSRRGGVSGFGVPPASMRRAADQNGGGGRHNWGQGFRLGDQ

compound: COc1ccc(Cn2ccc3ccc(C(=O)NO)cc32)cc1; assay: dose-dependent thermal stabilisation call (2D-TPP, DLPTP, 10% FDR) (binary (1 = stabilised)); higher = stabilised by the compound; conditions: system: HL-60 intact cells; concentration range 0.04-10 µM

Row | Target | dose-dependent thermal stabilisation call
1 | CPSF3 (UniProt Q9UKF6) | inactive: 0
2 | COX2 | inactive: 0
3 | CYB5R1 (UniProt Q9UHQ9) | inactive: 0
4 | DCUN1D1 (UniProt Q96GG9) | inactive: 0
5 | DERL2 (UniProt Q9GZP9) | inactive: 0
6 | DEF6 (UniProt Q9H4E7) | inactive: 0
7 | DCTN1 (UniProt Q14203) | inactive: 0
8 | CSGLCA-T | inactive: 0
9 | CTNNBL1 (UniProt Q8WYA6) | inactive: 0
10 | CTSA (UniProt P10619) | inactive: 0
11 | COX7A2L (UniProt O14548) | inactive: 0
12 | CROP (UniProt O95232) | inactive: 0
13 | COPS4 (UniProt Q9BT78) | inactive: 0
14 | CSDE1 (UniProt O75534) | inactive: 0
15 | CSNK1E (UniProt P49674) | inactive: 0
16 | DDX60 (UniProt Q8IY21) | inactive: 0
17 | CYB5B (UniProt O43169) | inactive: 0
18 | DCAKD (UniProt Q8WVC6) | inactive: 0
19 | DDHD2 (UniProt O94830) | inactive: 0
20 | DAG1 (UniProt Q14118) | inactive: 0
21 | DHRS11 (UniProt Q6UWP2) | inactive: 0
22 | CUL5 (UniProt Q93034) | inactive: 0
23 | CORO2A (UniProt Q92828) | inactive: 0
24 | CPD (UniProt O75976) | inactive: 0
25 | CSTF1 (UniProt Q05048) | inactive: 0
26 | CYP51A1 (UniProt Q16850) | active: 1
27 | DERL1 (UniProt Q9BUN8) | inactive: 0
28 | DHRS7 (UniProt Q9Y394) | inactive: 0

Reformatted: entries from further up.
Row,Target,dose-dependent thermal stabilisation call
8,CSGLCA-T,inactive: 0
9,CTNNBL1 (UniProt Q8WYA6),inactive: 0
